Results: PMC5511134
These are yes or no findings as the source states them, for the method shown. Some results given as binding are weak or reduced against the parent protein; the word gives no strength.

Amino acid sequences for entries named in this document (tags omitted). Residues count along the entry.
UniProt Q91ZX7, residues 20-4545: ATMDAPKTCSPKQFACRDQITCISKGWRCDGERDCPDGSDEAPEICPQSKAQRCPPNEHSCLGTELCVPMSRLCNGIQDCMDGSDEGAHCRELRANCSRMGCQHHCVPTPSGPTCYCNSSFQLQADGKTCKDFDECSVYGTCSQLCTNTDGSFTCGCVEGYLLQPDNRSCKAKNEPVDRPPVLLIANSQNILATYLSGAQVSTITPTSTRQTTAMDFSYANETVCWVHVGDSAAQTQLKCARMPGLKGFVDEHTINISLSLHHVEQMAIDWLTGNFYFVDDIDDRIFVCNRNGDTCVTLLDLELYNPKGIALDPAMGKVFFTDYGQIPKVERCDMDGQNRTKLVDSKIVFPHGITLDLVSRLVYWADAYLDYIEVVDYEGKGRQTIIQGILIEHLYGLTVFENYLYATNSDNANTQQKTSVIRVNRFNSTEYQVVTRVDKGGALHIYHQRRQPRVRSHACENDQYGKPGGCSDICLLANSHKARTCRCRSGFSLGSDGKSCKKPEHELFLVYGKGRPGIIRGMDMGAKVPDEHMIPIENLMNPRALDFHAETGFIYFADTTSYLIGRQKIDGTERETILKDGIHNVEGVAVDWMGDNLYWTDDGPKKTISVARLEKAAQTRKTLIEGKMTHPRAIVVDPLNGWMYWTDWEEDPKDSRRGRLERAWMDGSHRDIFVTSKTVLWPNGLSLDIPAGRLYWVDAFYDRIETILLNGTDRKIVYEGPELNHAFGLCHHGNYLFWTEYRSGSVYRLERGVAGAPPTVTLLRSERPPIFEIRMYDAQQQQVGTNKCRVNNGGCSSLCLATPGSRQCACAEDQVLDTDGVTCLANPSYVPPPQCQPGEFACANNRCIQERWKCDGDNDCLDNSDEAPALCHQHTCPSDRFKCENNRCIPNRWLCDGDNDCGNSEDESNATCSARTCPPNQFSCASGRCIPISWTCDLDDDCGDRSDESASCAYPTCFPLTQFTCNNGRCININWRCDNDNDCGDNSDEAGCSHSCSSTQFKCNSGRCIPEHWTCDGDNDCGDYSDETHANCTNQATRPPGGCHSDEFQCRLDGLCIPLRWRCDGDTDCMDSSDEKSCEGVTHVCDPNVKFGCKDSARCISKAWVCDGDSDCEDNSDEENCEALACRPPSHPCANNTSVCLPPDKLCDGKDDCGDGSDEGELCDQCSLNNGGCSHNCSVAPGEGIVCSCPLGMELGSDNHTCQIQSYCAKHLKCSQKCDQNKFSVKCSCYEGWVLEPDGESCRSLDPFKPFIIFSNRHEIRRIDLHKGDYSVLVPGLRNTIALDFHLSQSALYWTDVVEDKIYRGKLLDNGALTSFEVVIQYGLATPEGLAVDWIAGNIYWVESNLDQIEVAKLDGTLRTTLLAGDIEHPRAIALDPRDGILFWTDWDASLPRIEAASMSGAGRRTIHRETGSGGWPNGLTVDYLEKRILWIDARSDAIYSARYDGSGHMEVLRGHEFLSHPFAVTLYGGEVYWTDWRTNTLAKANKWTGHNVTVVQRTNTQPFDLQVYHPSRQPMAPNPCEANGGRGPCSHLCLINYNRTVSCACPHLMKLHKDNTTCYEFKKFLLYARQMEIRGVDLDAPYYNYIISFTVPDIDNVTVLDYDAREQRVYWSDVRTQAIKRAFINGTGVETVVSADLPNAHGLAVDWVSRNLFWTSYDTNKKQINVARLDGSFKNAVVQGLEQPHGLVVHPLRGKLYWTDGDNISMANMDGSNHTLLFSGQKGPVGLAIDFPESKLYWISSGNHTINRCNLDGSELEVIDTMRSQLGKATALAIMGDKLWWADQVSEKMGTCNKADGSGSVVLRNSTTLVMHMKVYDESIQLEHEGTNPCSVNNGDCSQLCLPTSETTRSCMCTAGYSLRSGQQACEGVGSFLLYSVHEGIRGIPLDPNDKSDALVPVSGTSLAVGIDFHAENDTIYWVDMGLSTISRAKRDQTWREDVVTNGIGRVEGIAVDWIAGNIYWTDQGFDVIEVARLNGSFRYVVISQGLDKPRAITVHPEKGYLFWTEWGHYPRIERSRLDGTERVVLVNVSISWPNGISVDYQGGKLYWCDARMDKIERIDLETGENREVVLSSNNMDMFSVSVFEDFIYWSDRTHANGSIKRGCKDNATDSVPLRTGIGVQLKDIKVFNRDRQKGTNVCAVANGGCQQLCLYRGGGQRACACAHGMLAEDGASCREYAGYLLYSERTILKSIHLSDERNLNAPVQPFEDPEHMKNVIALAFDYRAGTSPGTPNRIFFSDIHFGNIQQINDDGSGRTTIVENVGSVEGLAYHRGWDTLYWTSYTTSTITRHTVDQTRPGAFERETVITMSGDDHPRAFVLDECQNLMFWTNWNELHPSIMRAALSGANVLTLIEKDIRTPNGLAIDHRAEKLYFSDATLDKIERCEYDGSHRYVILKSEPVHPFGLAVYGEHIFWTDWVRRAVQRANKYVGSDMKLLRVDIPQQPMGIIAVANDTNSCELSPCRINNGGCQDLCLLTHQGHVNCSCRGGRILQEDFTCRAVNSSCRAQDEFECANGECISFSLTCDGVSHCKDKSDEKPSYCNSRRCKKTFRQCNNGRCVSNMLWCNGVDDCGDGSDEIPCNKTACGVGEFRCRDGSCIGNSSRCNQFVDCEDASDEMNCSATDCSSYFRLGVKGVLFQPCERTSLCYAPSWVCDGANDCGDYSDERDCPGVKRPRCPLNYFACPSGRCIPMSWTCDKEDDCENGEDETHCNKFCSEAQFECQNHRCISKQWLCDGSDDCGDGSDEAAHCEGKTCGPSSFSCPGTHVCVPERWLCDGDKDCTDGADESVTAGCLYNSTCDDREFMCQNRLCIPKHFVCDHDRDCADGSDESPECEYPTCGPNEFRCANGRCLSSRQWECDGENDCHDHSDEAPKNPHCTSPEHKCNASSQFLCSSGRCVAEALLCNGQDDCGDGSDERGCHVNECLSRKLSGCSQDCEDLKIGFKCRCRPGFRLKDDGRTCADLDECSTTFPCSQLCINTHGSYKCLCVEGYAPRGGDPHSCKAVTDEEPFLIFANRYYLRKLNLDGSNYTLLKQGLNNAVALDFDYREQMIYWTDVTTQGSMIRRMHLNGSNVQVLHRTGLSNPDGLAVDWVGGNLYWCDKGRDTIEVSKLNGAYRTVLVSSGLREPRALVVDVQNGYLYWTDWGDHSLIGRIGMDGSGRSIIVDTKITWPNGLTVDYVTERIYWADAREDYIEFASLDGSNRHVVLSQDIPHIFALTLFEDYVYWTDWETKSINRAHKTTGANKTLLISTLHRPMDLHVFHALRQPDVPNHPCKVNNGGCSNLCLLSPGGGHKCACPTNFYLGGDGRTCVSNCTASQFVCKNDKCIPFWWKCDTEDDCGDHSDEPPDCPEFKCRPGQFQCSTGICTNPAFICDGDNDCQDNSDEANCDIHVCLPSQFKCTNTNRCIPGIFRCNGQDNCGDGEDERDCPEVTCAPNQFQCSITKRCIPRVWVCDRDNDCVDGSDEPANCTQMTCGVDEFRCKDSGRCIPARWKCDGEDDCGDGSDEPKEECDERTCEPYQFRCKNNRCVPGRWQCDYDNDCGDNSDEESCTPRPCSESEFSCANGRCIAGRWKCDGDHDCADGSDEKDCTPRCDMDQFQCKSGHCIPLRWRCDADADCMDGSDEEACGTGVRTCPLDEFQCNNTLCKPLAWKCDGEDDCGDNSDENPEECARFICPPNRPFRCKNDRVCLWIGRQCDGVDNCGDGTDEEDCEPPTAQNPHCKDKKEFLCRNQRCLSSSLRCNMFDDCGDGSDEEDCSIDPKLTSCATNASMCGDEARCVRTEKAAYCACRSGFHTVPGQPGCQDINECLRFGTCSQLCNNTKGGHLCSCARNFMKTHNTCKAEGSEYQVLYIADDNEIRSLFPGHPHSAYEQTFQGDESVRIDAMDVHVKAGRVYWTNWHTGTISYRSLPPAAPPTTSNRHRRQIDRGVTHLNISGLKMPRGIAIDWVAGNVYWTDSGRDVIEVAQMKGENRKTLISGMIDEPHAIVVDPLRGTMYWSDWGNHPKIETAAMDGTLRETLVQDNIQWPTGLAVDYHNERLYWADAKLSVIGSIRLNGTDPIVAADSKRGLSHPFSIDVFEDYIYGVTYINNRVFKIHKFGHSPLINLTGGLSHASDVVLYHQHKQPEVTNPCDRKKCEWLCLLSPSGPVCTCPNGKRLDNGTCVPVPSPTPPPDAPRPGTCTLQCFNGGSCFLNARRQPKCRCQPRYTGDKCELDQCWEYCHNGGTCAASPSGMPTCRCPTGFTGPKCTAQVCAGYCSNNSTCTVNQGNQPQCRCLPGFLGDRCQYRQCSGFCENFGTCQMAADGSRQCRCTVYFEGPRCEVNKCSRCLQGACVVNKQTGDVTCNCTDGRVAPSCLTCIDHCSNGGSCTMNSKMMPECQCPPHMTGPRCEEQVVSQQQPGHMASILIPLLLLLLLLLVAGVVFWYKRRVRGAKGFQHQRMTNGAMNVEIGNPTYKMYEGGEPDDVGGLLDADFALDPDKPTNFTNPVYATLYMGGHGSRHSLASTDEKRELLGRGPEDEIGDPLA
UniProt P30533, residues 35-357: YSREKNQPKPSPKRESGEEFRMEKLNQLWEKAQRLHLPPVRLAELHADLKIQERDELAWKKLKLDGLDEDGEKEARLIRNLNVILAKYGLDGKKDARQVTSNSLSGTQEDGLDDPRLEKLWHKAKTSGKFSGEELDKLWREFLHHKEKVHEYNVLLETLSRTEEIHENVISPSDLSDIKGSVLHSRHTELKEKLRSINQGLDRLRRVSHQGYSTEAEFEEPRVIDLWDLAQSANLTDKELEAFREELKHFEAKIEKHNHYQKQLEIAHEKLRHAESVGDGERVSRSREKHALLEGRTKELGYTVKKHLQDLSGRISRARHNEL

Biological target: low-density lipoprotein receptor-related protein-1 (LRP-1) on mouse cortical neurons (mouse (endogenous in cortical neurons)) (UniProt Q91ZX7)
Assay: fluorescence of ligand bound to the cell surface (released by pronase, spectrofluorimetry); mouse cortical neurons incubated at 4 °C with 5 nM eFluor-conjugated TIMP-1 or mutants, with or without 500 nM RAP or 30 µg/mL LRP-1 blocking antibodies R2629; washed, surface-digested with 0.1% pronase, fluorescence of the supernatant; only the binder purified

binding: binds
Substance: Recombinant RAP (from UniProt P30533 35-357)
